Assay results reported in PubChem BioAssay AID540276 (National Center for Advancing Translational Sciences (NCATS), 2011).
Values joined by “and” are separate entries in the source; they are usually repeats but may differ in a detail not shown here. Identical values can stand only once. Among all 300,000 compounds or so, about 5,400 (1.8%) were called active. Inconclusive means that the source gave no clear call. Such entries were picked first, then a sample of the others. Calls follow the shape of the full dose curve; tested in HEK293 cells. Potencies of inconclusive entries are doubtful fits and often do not repeat.
Potency is read from the fitted curve at half-maximal effect.

Assay: qHTS for inhibitors of binding or entry into cells for Marburg Virus
Details: Marburg virus pseudotyped entry inhibition, cell reporter; series mostly up to 37.8 µM
With `CCN(CC(=O)Nc1ccc(S(=O)(=O)N2CCOCC2)cc1)Cc1ccccc1` the Potency was “inactive”. With `C=CCn1c(SCC(=O)N(CC)C2CCS(=O)(=O)C2)nc2scc(-c3ccccc3)c2c1=O` (stereo unspecified) the Potency was inconclusive: 0.794 µM [inhibitor, full curve, poor fit]. With `O=C(CSc1ncccn1)NCc1ccccc1Cl` the Potency was inconclusive: 29.1 µM [activator, single point]. With `O=C(NCCc1nc2ccccc2n1Cc1c(F)cccc1Cl)c1ccco1` the Potency was inconclusive: 2.24 µM [activator, single point]. For `O=C(CSc1nc2cc3ccccc3cc2[nH]1)Nc1ccc(F)cc1`, the Potency was inconclusive: 2.91 µM [inhibitor, partial curve, poor fit] and inconclusive: 3.55 µM [activator, partial curve, poor fit]. In the case of `COc1ccc(C(=O)NCc2cc(C)nc3ccccc23)cc1OC`, the Potency is reported as inconclusive: 3.16 µM [inhibitor, partial curve, poor fit]. In the case of `CCOC(=O)c1c(C)nc2c(c(SC)nn2-c2ccccc2)c1N`, the Potency is reported as inconclusive: 2 µM [inhibitor, single point]. With `Cc1cc(N2CCN(c3ccccc3F)CC2)nc2cc(O)ccc12` the Potency was inconclusive: 7.08 µM [inhibitor, partial curve, poor fit]. For `Nc1nc(C23CC4CCC(CC(C4)C2)C3)cs1`, the Potency was inconclusive: 6.31 µM [inhibitor, single point]. For `COc1cc(Cl)c(NC(=O)CCc2nc3cccnc3n2-c2ccccc2)c(OC)c1`, the Potency was “inactive”. For `O=C(CSc1nnc(-c2ccccc2F)n1C1CC1)NC(=O)c1cccc([N+](=O)[O-])c1`, the Potency was inconclusive: 7.94 µM [activator, partial curve]. In the case of `O=C1c2ccccc2C(=O)C1c1ccnc2ccccc12`, the Potency is reported as active: 7.3 µM. In the case of `O=C(c1cccc(S(=O)(=O)Nc2cccc(C(F)(F)F)c2)c1)N1CCOCC1`, the Potency is reported as “inactive”. With `COCCNc1nc(N)c([N+](=O)[O-])c(NC2CCCCC2)n1` the Potency was “inactive”. With `CC(C)(C)C(=O)CN1C(=O)NC(C)(Cc2ccc3c(c2)OCO3)C1=O` (stereo unspecified) the Potency was inconclusive: 35.5 µM [activator, single point]. With `CCOc1cccc2sc(Cl)nc12` the Potency was inconclusive: 3.55 µM [activator, single point]. For `Cc1ccc(CNC(=O)C(C)OC(=O)c2cccs2)cc1` (stereo unspecified), the Potency was inconclusive: 29.1 µM [activator, single point]. For `COc1ccc(-c2cc(C(=O)N(C)Cc3ccc(OC)c(OC)c3OC)c3ccccc3n2)cc1OC`, the Potency was inconclusive: 7.08 µM [inhibitor, partial curve, poor fit]. For `COCCCNc1ccnc2c(Cl)cccc12`, the Potency was inconclusive: 7.08 µM [inhibitor, full curve]. For `Cc1cccc(N(CC(=O)NC2CCCCC2)C(=O)CCC(=O)Nc2nccs2)c1`, the Potency was “inactive”. In the case of `CC(=O)Nc1cccc(C(=O)OCC(=O)N2CCN(C(=O)COC(=O)c3cccc(NC(C)=O)c3)CC2)c1`, the Potency is reported as inconclusive: 6.31 µM [inhibitor, single point]. With `COc1ccc(CCC(=O)Nc2ccc(Br)cn2)cc1` the Potency was “inactive”. With `C#CCCCO/N=C1/C[C@@H](O)[C@@H](O)[C@@H]2[C@@H]3C(=O)N(C4CCCCC4)C(=O)[C@H]3CC[C@H]12` the Potency was inconclusive: 0.422 µM [inhibitor, partial curve, poor fit]. In the case of `CCC(CC)c1nnc(NC(=O)c2ccc(N3CCCC3=O)cc2)s1`, the Potency is reported as inconclusive: 29.1 µM [activator, single point]. With `CC1(C)CC(=O)C(C=NCCN2CCN(C(=O)NC34CC5CC(CC(C5)C3)C4)CC2)=C(O)C1` the Potency was inconclusive: 15.8 µM [inhibitor, single point]. In the case of `COc1ccc(NS(=O)(=O)c2cc(C)ccc2C)cc1`, the Potency is reported as inconclusive: 20 µM [inhibitor, single point]. In the case of `CCCCCN1C(C(=O)c2ccccc2)=C(NC(=O)c2ccc(C)cc2)c2ccccc2S1(=O)=O`, the Potency is reported as inconclusive: 10 µM [inhibitor, partial curve, poor fit]. With `CCN(CC(=O)NCc1ccc(F)cc1)C(=O)CN1CCN(c2cc(Cl)ccc2C)CC1` the Potency was “inactive”. For `O=C(CN(C(=O)c1csnn1)c1cccc2c1CCCC2)NCc1ccc(F)cc1`, the Potency was inconclusive: 25.1 µM [inhibitor, single point]. For `CC(=O)c1sc(NC(=O)c2c(-c3ccccc3)c(-c3ccccc3)nn(C)c2=O)nc1C`, the Potency was “inactive”. With `CC1Cc2ccccc2N1S(=O)(=O)c1cccc(C(=O)N2CCN(c3ncccn3)CC2)c1` (stereo unspecified) the Potency was inconclusive: 2.82 µM [inhibitor, full curve, poor fit]. With `COc1ccccc1NC(=O)c1ccc(S(=O)(=O)N2CCC(C)CC2)cc1` the Potency was inconclusive: 28.2 µM [inhibitor, single point]. For `O=C(Nc1nnc(-c2ccccc2)s1)c1ccc(F)cc1`, the Potency was inconclusive: 35.5 µM [inhibitor, single point]. In the case of `N/C(Cc1ccc([N+](=O)[O-])cc1)=N\OC(=O)C(c1ccccc1)c1ccccc1`, the Potency is reported as inconclusive: 10.3 µM [inhibitor, partial curve]. In the case of `CN(C)S(=O)(=O)c1ccc(C(=O)N2CCCC2c2nc3ccccc3s2)cc1` (stereo unspecified), the Potency is reported as “inactive”. For `CCCNC(=O)C1CCN(c2cc(-c3ccccc3)nc3ncnn23)CC1`, the Potency was inconclusive: 7.08 µM [activator, partial curve]. For `CCN(CC(=O)Nc1ccccc1OC)Cc1csc(CC(=O)Nc2ccc(C)cc2)n1`, the Potency was inconclusive: 22.4 µM [inhibitor, partial curve, poor fit]. In the case of `c1coc(-c2nc3nc4ccccc4nc3n2CC2CCCO2)c1` (stereo unspecified), the Potency is reported as “inactive”. For `C=CCOc1ccc(C2/C(=C(/O)c3ccc4c(c3)CC(C)O4)C(=O)C(=O)N2CCCN2CCOCC2)cc1` (stereo unspecified), the Potency was “inactive”. With `CC(=O)NC(=S)Nc1ccc(NC(=O)COc2ccc(C(C)C)cc2)cc1` the Potency was inconclusive: 14.1 µM [inhibitor, single point]. With `CC(C)(C)C1CCc2onc(C(=O)NCc3ccc(F)cc3)c2C1` (stereo unspecified) the Potency was “inactive”.
